Series [1] can be described thus: Permeability from apical to basolateral side of human Caco2 cells after 120 mins. The conditions noted are these: Caco-2.
The species named for the next series is Mus musculus. The series can be described thus: animal or person. Type of series: functional. The conditions noted are these: ddY, po.
The species entered for another series is Homo sapiens. The series can be described thus: Ratio of IC50 for human adrenergic alpha1 to IC50 for human histamine H1 receptor.

SMILES strings stand for the structures.

In series [1], `Cn1c(N2CCN(CCCN3c4ccccc4COc4ccc(C(=O)O)cc43)CC2)cc(=O)n(C)c1=O` yielded a Papp A→B at 2 h of 7.6 ×10⁻⁶ cm/s. The molecule further gave an ED70 in the series filed under Mus musculus of 187 mg/kg. In the series listed under Homo sapiens, the Ratio IC50 was greater than 240.

The values are drawn from ChEMBL document CHEMBL1772991, “Synthesis and structure-activity relationship of tricyclic carboxylic acids as novel anti-histamines” (Bioorg Med Chem, 2011).
